{
  "sequences": {"note": "Chains of the proteins cited; added tags and fusions are not shown. Lines headed by an entry give the natural chain unless they say otherwise; changes in a name come on top. Residues count along the entry.", "UniProt P06493, whole entry": "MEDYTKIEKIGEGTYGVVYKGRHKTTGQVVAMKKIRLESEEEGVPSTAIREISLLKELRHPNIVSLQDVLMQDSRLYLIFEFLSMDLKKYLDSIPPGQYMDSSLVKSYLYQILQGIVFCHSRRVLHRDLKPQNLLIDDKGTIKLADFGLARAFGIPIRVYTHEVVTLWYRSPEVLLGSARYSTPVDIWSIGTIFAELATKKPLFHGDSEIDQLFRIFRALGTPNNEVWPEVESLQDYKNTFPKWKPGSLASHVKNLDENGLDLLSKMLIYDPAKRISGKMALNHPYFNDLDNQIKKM", "UniProt Q06418, 41-890": "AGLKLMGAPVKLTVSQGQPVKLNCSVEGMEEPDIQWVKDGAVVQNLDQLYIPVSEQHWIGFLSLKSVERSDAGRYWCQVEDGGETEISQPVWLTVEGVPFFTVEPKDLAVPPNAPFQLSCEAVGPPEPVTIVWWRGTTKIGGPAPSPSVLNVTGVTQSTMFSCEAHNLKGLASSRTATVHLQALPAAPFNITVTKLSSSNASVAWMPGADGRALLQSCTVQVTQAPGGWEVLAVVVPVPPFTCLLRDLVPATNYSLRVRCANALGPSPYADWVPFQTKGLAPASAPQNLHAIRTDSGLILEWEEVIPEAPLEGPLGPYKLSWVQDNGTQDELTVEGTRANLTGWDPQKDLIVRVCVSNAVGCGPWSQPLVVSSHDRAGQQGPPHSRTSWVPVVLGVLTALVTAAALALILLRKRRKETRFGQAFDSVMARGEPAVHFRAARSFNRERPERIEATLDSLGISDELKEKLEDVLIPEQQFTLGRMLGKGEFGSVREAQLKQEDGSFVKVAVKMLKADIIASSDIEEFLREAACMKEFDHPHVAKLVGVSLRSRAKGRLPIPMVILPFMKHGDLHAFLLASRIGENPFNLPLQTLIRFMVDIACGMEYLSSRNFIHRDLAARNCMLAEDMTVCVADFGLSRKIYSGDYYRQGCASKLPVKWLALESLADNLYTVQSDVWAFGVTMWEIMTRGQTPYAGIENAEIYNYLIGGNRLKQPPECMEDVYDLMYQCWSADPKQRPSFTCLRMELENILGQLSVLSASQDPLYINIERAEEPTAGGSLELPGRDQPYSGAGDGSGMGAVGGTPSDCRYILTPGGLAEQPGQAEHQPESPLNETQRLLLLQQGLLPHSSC", "UniProt Q16539, whole entry": "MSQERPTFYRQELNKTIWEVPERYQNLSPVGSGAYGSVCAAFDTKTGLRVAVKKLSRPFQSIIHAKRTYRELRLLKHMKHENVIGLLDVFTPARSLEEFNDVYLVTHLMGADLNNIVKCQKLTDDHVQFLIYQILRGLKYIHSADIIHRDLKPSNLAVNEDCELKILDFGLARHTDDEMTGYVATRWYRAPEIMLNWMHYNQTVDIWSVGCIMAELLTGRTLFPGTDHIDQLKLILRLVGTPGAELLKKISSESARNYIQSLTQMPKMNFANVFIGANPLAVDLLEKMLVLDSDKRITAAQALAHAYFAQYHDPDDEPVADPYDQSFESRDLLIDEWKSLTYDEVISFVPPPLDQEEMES", "UniProt Q9UQM7, whole entry": "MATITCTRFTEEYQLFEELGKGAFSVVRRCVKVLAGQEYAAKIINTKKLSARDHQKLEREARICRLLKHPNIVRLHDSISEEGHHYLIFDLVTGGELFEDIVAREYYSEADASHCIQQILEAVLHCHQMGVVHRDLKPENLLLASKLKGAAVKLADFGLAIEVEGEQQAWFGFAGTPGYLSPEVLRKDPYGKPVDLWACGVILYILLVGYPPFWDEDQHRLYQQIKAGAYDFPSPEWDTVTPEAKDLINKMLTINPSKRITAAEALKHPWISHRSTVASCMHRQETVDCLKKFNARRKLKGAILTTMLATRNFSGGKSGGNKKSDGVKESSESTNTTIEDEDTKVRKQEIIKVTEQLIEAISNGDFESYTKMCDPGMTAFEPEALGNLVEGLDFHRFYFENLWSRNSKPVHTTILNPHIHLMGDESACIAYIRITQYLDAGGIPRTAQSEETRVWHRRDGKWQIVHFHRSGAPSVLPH", "UniProt P31749": "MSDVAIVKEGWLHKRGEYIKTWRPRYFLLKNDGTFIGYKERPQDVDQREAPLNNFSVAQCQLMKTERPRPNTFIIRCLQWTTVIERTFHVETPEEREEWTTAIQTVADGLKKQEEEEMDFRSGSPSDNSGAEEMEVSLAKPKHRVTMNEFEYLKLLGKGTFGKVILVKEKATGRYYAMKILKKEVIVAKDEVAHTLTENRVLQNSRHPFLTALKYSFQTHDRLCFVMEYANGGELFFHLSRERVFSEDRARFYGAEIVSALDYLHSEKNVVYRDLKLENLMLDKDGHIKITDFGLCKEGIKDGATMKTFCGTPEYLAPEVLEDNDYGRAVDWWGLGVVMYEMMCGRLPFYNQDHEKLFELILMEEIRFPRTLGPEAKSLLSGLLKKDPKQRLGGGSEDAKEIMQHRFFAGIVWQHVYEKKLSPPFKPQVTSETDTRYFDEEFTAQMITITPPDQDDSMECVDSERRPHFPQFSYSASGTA", "UniProt P29376, 17-864": "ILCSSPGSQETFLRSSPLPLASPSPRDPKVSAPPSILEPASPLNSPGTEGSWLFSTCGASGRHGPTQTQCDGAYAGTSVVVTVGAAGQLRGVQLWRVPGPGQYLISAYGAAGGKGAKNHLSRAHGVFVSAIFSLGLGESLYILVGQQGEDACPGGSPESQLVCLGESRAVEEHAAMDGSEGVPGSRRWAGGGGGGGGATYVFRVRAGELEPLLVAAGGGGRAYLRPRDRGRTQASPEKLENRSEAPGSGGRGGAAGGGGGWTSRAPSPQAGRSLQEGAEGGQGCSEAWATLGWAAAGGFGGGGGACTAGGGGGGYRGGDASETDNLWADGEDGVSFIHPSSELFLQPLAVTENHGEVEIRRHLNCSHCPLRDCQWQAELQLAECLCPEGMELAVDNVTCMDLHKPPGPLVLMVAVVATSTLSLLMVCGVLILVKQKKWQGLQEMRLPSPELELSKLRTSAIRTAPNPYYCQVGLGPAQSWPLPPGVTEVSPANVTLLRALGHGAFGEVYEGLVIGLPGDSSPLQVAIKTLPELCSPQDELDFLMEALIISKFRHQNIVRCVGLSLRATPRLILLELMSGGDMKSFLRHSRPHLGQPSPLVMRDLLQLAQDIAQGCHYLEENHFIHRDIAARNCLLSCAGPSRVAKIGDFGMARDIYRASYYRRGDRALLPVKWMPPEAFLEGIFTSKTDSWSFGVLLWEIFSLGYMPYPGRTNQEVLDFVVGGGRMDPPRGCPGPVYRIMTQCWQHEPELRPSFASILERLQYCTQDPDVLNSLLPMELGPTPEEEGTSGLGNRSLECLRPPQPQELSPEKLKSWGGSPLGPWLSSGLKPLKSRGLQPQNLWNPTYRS", "UniProt P41279, whole entry": "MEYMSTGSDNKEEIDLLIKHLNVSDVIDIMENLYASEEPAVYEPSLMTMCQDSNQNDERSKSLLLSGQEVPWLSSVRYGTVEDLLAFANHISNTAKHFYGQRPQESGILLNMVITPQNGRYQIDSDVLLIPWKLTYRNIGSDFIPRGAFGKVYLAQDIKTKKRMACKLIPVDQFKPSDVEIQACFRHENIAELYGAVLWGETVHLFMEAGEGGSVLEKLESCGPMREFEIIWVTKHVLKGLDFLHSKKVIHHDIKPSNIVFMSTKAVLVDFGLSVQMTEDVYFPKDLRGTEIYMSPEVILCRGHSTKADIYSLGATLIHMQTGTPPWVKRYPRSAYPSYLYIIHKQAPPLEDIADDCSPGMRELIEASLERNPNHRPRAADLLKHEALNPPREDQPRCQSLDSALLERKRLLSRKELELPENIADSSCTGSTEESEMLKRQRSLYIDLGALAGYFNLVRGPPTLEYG", "UniProt Q13163": "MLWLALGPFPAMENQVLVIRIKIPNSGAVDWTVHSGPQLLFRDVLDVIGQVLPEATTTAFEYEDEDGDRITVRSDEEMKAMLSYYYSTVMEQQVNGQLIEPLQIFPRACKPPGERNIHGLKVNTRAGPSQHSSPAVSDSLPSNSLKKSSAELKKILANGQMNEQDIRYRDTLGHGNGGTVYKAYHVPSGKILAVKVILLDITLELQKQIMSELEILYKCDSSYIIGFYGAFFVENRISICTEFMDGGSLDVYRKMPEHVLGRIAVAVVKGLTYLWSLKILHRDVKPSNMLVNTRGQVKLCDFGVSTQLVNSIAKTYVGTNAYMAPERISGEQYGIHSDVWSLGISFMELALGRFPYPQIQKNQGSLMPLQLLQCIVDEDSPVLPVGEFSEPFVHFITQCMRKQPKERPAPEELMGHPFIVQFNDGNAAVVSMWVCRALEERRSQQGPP", "UniProt P08922, 28-2347": "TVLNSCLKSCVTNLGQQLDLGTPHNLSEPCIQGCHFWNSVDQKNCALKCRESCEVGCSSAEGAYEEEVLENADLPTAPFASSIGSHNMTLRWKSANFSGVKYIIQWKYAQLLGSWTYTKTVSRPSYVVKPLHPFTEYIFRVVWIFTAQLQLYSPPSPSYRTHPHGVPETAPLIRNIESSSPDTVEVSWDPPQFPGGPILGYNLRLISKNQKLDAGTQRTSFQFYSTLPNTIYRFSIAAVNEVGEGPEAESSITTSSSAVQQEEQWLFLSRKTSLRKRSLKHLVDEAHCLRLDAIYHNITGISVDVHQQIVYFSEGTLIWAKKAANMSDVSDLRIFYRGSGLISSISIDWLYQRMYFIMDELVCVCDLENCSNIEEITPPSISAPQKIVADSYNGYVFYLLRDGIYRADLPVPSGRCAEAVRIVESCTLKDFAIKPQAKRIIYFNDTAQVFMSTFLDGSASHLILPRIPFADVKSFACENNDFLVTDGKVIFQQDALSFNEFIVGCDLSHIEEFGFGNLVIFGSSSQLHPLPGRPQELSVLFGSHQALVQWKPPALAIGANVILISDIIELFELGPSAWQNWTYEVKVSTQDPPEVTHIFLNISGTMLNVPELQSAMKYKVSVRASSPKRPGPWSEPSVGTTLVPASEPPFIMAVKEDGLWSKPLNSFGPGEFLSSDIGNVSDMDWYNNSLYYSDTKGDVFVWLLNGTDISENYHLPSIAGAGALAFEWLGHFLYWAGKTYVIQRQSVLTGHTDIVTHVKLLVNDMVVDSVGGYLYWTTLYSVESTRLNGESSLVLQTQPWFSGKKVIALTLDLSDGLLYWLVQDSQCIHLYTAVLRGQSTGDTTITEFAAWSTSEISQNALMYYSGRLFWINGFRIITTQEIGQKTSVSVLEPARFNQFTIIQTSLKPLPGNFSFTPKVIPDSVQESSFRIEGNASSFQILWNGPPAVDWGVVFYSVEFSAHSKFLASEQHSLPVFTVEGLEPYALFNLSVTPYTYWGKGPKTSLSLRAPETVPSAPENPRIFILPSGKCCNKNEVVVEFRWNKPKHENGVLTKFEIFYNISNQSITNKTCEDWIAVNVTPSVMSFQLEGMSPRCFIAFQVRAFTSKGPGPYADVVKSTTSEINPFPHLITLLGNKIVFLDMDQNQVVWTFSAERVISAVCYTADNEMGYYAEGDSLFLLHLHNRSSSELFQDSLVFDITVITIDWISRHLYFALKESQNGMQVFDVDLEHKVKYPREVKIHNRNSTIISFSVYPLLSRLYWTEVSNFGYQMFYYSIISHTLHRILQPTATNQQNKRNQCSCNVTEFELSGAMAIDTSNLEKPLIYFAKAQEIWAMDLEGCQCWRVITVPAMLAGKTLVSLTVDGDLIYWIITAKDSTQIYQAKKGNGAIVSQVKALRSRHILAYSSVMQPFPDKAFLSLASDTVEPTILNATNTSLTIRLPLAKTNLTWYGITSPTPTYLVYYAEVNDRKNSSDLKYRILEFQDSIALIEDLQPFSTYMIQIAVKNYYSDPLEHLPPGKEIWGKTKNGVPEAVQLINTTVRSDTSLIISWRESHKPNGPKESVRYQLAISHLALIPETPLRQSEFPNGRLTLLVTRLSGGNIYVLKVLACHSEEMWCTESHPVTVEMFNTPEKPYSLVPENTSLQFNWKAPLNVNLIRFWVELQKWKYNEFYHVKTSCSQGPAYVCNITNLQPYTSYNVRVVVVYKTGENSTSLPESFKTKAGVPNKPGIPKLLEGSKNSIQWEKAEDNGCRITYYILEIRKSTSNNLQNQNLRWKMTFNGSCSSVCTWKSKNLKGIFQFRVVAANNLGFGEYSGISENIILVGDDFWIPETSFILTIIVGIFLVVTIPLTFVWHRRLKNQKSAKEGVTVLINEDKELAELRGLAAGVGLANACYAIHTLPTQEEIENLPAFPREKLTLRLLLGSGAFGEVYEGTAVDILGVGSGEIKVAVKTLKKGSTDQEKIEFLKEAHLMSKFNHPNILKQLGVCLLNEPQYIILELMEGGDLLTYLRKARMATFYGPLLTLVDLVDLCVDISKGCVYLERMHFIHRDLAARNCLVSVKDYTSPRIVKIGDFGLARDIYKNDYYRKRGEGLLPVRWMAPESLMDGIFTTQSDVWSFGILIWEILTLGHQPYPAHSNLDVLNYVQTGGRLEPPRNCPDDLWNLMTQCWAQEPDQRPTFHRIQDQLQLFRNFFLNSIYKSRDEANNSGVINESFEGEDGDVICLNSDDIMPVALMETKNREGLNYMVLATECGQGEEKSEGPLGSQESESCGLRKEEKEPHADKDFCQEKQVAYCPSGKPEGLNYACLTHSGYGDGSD"},
  "source": "paper PMC8213057",
  "about": "“Targeting ALK2: An Open Science Approach to Developing Therapeutics for the Treatment of Diffuse Intrinsic Pontine Glioma” (Journal of Medicinal Chemistry, 2020)",
  "key": {"[1]": {"target": "TSSK3/STK22C (Homo sapiens, UniProt Q96PN8)", "assay": "biochemical", "details": "read-out: % enzyme activity, 1 μM; Run 1, Run 2"}, "[2]": {"target": "GSK3a (Homo sapiens, UniProt P49840)", "details": "1 μM; Run 1, Run 2"}, "[3]": {"target": "FER (Homo sapiens, UniProt P16591)", "details": "1 μM; Run 1, Run 2"}, "[4]": {"target": "BRSK2 (Homo sapiens, UniProt Q8IWQ3)", "assay": "biochemical", "details": "read-out: % enzyme activity, 1 μM; Run 1, Run 2"}, "[5]": {"target": "CDK1/cyclin A (Homo sapiens, UniProt P06493)", "assay": "biochemical", "details": "read-out: % enzyme activity, 1 μM; Run 1, Run 2"}, "[6]": {"target": "Aurora A (Homo sapiens, UniProt O14965)", "assay": "biochemical", "details": "read-out: % enzyme activity, 1 μM; Run 1, Run 2"}, "[7]": {"target": "TYRO3/SKY (Homo sapiens, UniProt Q06418)", "assay": "biochemical", "details": "read-out: % enzyme activity, 1 μM; Run 1, Run 2"}, "[8]": {"target": "P38a/MAPK14 (Homo sapiens, UniProt Q16539)", "details": "1 μM; Run 1, Run 2"}, "[9]": {"target": "MLK1/MAP3K9 (Homo sapiens, UniProt P80192)", "details": "1 μM; Run 1, Run 2"}, "[10]": {"target": "EPHB4 (Homo sapiens, UniProt P54760)", "details": "1 μM; Run 1, Run 2"}, "[11]": {"target": "TIE2/TEK (Homo sapiens, UniProt Q02763)", "details": "1 μM; Run 1, Run 2"}, "[12]": {"target": "ULK1 (Homo sapiens, UniProt O75385)", "details": "1 μM; Run 1, Run 2"}, "[13]": {"target": "BRSK1 (Homo sapiens, UniProt Q8TDC3)", "details": "1 μM; Run 1, Run 2"}, "[14]": {"target": "RIPK4 (Homo sapiens, UniProt P57078)", "assay": "biochemical", "details": "read-out: % enzyme activity, 1 μM; Run 1, Run 2"}, "[15]": {"target": "JAK1 (Homo sapiens, UniProt P23458)", "assay": "biochemical", "details": "read-out: % enzyme activity, 1 μM; Run 1, Run 2"}, "[16]": {"target": "CAMK2a (Homo sapiens, UniProt Q9UQM7)", "assay": "biochemical", "details": "read-out: % enzyme activity, 1 μM; Run 1, Run 2"}, "[17]": {"target": "ERBB4/HER4 (Homo sapiens, UniProt Q15303)", "assay": "biochemical", "details": "read-out: % enzyme activity, 1 μM; Run 1, Run 2"}, "[18]": {"target": "AKT1 (Homo sapiens, UniProt P31749)", "assay": "biochemical", "details": "read-out: % enzyme activity, 1 μM; Run 1, Run 2"}, "[19]": {"target": "p70S6K/RPS6KB1 (Homo sapiens, UniProt P23443)", "assay": "biochemical", "details": "read-out: % enzyme activity, 1 μM; Run 1, Run 2"}, "[20]": {"target": "AKT3 (Homo sapiens, UniProt Q9Y243)", "details": "1 μM; Run 1, Run 2"}, "[21]": {"target": "TYK1/LTK (Homo sapiens, UniProt P29376)", "details": "1 μM; Run 1, Run 2"}, "[22]": {"target": "IGF1R (Homo sapiens, UniProt P08069)", "details": "1 μM; Run 1, Run 2"}, "[23]": {"target": "PIM2 (Homo sapiens, UniProt Q9P1W9)", "details": "1 μM; Run 1, Run 2"}, "[24]": {"target": "RSK2 (Homo sapiens, UniProt P51812)", "details": "1 μM; Run 1, Run 2"}, "[25]": {"target": "STK39/STLK3 (Homo sapiens, UniProt Q9UEW8)", "assay": "biochemical", "details": "read-out: % enzyme activity, 1 μM; Run 1, Run 2"}, "[26]": {"target": "COT1/MAP3K8 (Homo sapiens, UniProt P41279)", "details": "1 μM; Run 1, Run 2"}, "[27]": {"target": "IRAK4 (Homo sapiens, UniProt Q9NWZ3)", "details": "1 μM; Run 1, Run 2"}, "[28]": {"target": "JAK2 (Homo sapiens, UniProt O60674)", "details": "1 μM; Run 1, Run 2"}, "[29]": {"target": "PDK1/PDPK1 (Homo sapiens, UniProt O15530)", "details": "1 μM; Run 1, Run 2"}, "[30]": {"target": "RIPK2 (Homo sapiens, UniProt O43353)", "assay": "biochemical", "details": "read-out: % enzyme activity, 1 μM; Run 1, Run 2"}, "[31]": {"target": "MEK5 (Homo sapiens, UniProt Q13163)", "assay": "biochemical", "details": "read-out: % enzyme activity, 1 μM; Run 1, Run 2"}, "[32]": {"target": "STK21/CIT (Homo sapiens, UniProt O14578)", "assay": "biochemical", "details": "read-out: % enzyme activity, 1 μM; Run 1, Run 2"}, "[33]": {"target": "CTK/MATK (Homo sapiens, UniProt P42679)", "details": "1 μM; Run 1, Run 2"}, "[34]": {"target": "NEK8 (Homo sapiens, UniProt Q86SG6)", "assay": "biochemical", "details": "read-out: % enzyme activity, 1 μM; Run 1, Run 2"}, "[35]": {"target": "FLT1/VEGFR1 (Homo sapiens, UniProt P17948)", "details": "1 μM; Run 1, Run 2"}, "[36]": {"target": "MLK4 (Homo sapiens, UniProt Q5TCX8)", "details": "1 μM; Run 1, Run 2"}, "[37]": {"target": "P38d/MAPK13 (Homo sapiens, UniProt O15264)", "assay": "biochemical", "details": "read-out: % enzyme activity, 1 μM; Run 1, Run 2"}, "[38]": {"target": "WEE1 (Homo sapiens, UniProt P30291)", "details": "1 μM; Run 1, Run 2"}, "[39]": {"target": "DYRK4 (Homo sapiens, UniProt Q9NR20)", "assay": "biochemical", "details": "read-out: % enzyme activity, 1 μM; Run 1, Run 2"}, "[40]": {"target": "ROS/ROS1 (Homo sapiens, UniProt P08922)", "details": "1 μM; Run 1, Run 2"}, "[41]": {"target": "MEK3 (Homo sapiens, UniProt P46734)", "details": "1 μM; Run 1, Run 2"}, "[42]": {"target": "EPHB3 (Homo sapiens, UniProt P54753)", "details": "1 μM; Run 1, Run 2"}, "[43]": {"target": "TRKA (Homo sapiens, UniProt P04629)", "details": "1 μM; Run 1, Run 2"}},
  "data": [
    {"smiles": "COc1cc(-c2cncc(-c3ccc(N4CCN(C(C)C)CC4)cc3)c2C)cc(F)c1C(N)=O", "note": "[Compound 26b, 2-Fluoro-4-(5-(4-(4-isopropylpiperazin-1-yl)phenyl)-4-methylpyridin-3-yl)-6-methoxybenzamide]", "values": [
      {"measurement": "remaining activity at 1 µM", "setting": "[1]", "result": 95.1, "unit": "%"},
      {"measurement": "% enzyme activity", "setting": "[2]", "result": 100.51, "unit": "%"},
      {"measurement": "% enzyme activity", "setting": "[3]", "result": 83.48, "unit": "%"},
      {"measurement": "remaining activity at 1 µM", "setting": "[4]", "result": 73.8, "unit": "%"},
      {"measurement": "remaining activity at 1 µM", "setting": "[5]", "result": 84.5, "unit": "%"},
      {"measurement": "remaining activity at 1 µM", "setting": "[6]", "result": 93.8, "unit": "%"},
      {"measurement": "remaining activity at 1 µM", "setting": "[7]", "result": 97.4, "unit": "%"},
      {"measurement": "% enzyme activity", "setting": "[8]", "result": 99.05, "unit": "%"},
      {"measurement": "% enzyme activity", "setting": "[9]", "result": 102.91, "unit": "%"},
      {"measurement": "% enzyme activity", "setting": "[10]", "result": 85.87, "unit": "%"},
      {"measurement": "% enzyme activity", "setting": "[11]", "result": 91.97, "unit": "%"},
      {"measurement": "% enzyme activity", "setting": "[12]", "result": 82.29, "unit": "%"},
      {"measurement": "% enzyme activity", "setting": "[13]", "result": 84.48, "unit": "%"},
      {"measurement": "remaining activity at 1 µM", "setting": "[14]", "result": 79.7, "unit": "%"},
      {"measurement": "remaining activity at 1 µM", "setting": "[15]", "result": 96.7, "unit": "%"},
      {"measurement": "remaining activity at 1 µM", "setting": "[16]", "result": 89.9, "unit": "%"},
      {"measurement": "remaining activity at 1 µM", "setting": "[17]", "result": 101, "unit": "%"},
      {"measurement": "remaining activity at 1 µM", "setting": "[18]", "result": 102, "unit": "%"},
      {"measurement": "remaining activity at 1 µM", "setting": "[19]", "result": 97.8, "unit": "%"},
      {"measurement": "% enzyme activity", "setting": "[20]", "result": 97.15, "unit": "%"},
      {"measurement": "% enzyme activity", "setting": "[21]", "result": 100.49, "unit": "%"},
      {"measurement": "% enzyme activity", "setting": "[22]", "result": 99.60, "unit": "%"},
      {"measurement": "% enzyme activity", "setting": "[23]", "result": 96.36, "unit": "%"},
      {"measurement": "% enzyme activity", "setting": "[24]", "result": 97.24, "unit": "%"},
      {"measurement": "remaining activity at 1 µM", "setting": "[25]", "result": 97.6, "unit": "%"},
      {"measurement": "% enzyme activity", "setting": "[26]", "result": 94.82, "unit": "%"},
      {"measurement": "% enzyme activity", "setting": "[27]", "result": 88.83, "unit": "%"},
      {"measurement": "% enzyme activity", "setting": "[28]", "result": 92.56, "unit": "%"},
      {"measurement": "% enzyme activity", "setting": "[29]", "result": 93.89, "unit": "%"},
      {"measurement": "remaining activity at 1 µM", "setting": "[30]", "result": 80.9, "unit": "%"},
      {"measurement": "remaining activity at 1 µM", "setting": "[31]", "result": 96.3, "unit": "%"},
      {"measurement": "remaining activity at 1 µM", "setting": "[32]", "result": 103, "unit": "%"},
      {"measurement": "% enzyme activity", "setting": "[33]", "result": 94.38, "unit": "%"},
      {"measurement": "remaining activity at 1 µM", "setting": "[34]", "result": 102, "unit": "%"},
      {"measurement": "% enzyme activity", "setting": "[35]", "result": 95.86, "unit": "%"},
      {"measurement": "% enzyme activity", "setting": "[36]", "result": 89.41, "unit": "%"},
      {"measurement": "remaining activity at 1 µM", "setting": "[37]", "result": 104, "unit": "%"},
      {"measurement": "% enzyme activity", "setting": "[38]", "result": 120.95, "unit": "%"},
      {"measurement": "remaining activity at 1 µM", "setting": "[39]", "result": 97.2, "unit": "%"},
      {"measurement": "% enzyme activity", "setting": "[40]", "result": 95.52, "unit": "%"},
      {"measurement": "% enzyme activity", "setting": "[41]", "result": 103.04, "unit": "%"},
      {"measurement": "% enzyme activity", "setting": "[42]", "result": 92.25, "unit": "%"},
      {"measurement": "% enzyme activity", "setting": "[43]", "result": 89.07, "unit": "%"}
    ]}
  ]
}
